These are yes or no findings as the source states them, for the method shown. Binding seen in cells or lysates may run through a third protein. Some results given as binding are weak or reduced against the parent protein; the word gives no strength.
Tests used:
[1] = target: T1, Ninjurin2 (human (endogenous in A172 cells, primary human glioma cells and human glioma tissue)) (UniProt Q9NZG7); experiment: co-IP; fresh human glioma tissue lysates from three patients (T1/2/3), same Co-IP assay (anti-Ninj2 capture, Western blotting)
T1 sequence: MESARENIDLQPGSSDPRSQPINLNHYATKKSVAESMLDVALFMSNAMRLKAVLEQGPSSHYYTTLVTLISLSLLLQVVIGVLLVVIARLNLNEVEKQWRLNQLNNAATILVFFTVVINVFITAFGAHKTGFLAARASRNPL

[2] = target: T1, Ninjurin2 (human (endogenous in A172 cells, primary human glioma cells and human glioma tissue)); experiment: co-IP; 1000 μg total cellular lysates of A172 and primary human glioma cells (P1/P2), pre-cleared with beads; endogenous Ninj2 captured by an anti-Ninj2 antibody overnight, then beads 6-8h; Ninj2-immunoprecipitated proteins tested by Western blotting

Substance | binding [1] | binding [2]
platelet-derived growth factor receptor β (from UniProt P09619 33-1106) | binds | binds
epidermal growth factor receptor (from UniProt P00533 25-1210) | binds | binds
